# Test results as given in PubChem BioAssay AID485349 (National Center for Advancing Translational Sciences (NCATS), 2010).
# The whole screen tested about 320,000 compounds, of which about 620 (0.19%) were called active. The shares of active, inactive and inconclusive entries below differ from those in the screen. The call rests on the fitted dose curve; in most records, active means well fitted activation curve with a large enough effect; inconclusive means small, poorly fitted or top-dose-only effect; inactive means no such curve, though single readings can be large or run the other way. Where the call is inconclusive, the potency comes from a doubtful curve fit.
# Assay: qHTS Assay for Identifying a Potential Treatment of Ataxia-Telangiectasia; further: nearly all actives have a fitted effect of over 45% in size; on activation: % of control where 0% means no effect
# Details: […] A-T fibroblasts, KAP-1 phosphorylation AlphaLISA, neocarzinostatin DNA damage 30 min before lysis; series mostly up to 57.5 µM; activation: at the top concentration
# Outline: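 hTERT-immortalized A-T patient fibroblasts ([…]), 500 cells/well in OPTI-MEM, 1% FBS, got compounds for 60 min, then NCS for 30 min at 37C. Lysates were then assayed for phospho-KAP-1 by AlphaLISA (anti-pKAP1 donor, anti-KAP1 acceptor beads), 6 hr at 25C.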
# Potency means the concentration at half of the fitted maximal effect.
SMILES,Potency,activation
Cn1c(=O)c([N+](=O)[O-])c(Oc2ccccc2)c2ccccc21,"inconclusive: 39.8 µM [activator, single point]",
CC1CCN(CC(=O)Nc2ccccc2Sc2ccccc2)CC1,"inconclusive: 39.8 µM [activator, single point]",
Cc1ccc(-n2nc(CN3CCOCC3)c(-c3ccccc3)c2N)cc1Cl,,inactive: 3.86%
CCOC(=O)C(=O)c1c(C)cc2ccccn12,"inconclusive: 7.08 µM [activator, partial curve]",
Cc1cc(C)n(-c2ncc3c(n2)N(C)CCOC3=O)n1,"inconclusive: 7.94 µM [activator, partial curve, poor fit]",
Cc1cc(OCc2nc(-c3cccnc3)no2)c(C)cc1Br,"inconclusive: 0.631 µM [activator, partial curve, poor fit]",
CCOC(=O)C1=C(C)NC2=C(C(=O)C(C(=O)OCC)C(c3ccco3)C2)C1c1ccccn1 (stereo not drawn),,inactive: 7.7%
COc1ccc(CCN2CC(C(=O)NCCCn3nc(C)cc3C)CCC2=O)cc1 (stereo not drawn),,inactive: 7.58%
Cc1ccc(C(=O)N(CC(C)C)c2nc3ccccc3s2)o1,"inconclusive: 39.8 µM [activator, single point]",
c1ccc(CNc2nc(-c3ccccc3)nc3ccccc23)cc1,"inconclusive: 35.5 µM [activator, single point]",
CNC(=S)N/N=C/c1cccc(OCc2ccccc2F)c1,,inactive: 4.56%
COc1cc(OC)cc(C(=O)NC2CC(C)(C)NC(C)(C)C2)c1,"inconclusive: 0.316 µM [activator, full curve, poor fit]",
Cc1ccc(S(=O)(=O)Nc2ccccc2C(=O)Nc2nc(-c3ccc(F)cc3)cs2)cc1,"inconclusive: 3.16 µM [activator, partial curve]",
CCN1CCN(C(=O)CS(=O)Cc2nc(-c3cccc(C)c3)oc2C)CC1 (stereo not drawn),,inactive: -10.1%
c1ccc(Nc2cc(Nc3ccccc3)[nH]n2)cc1,,inactive: -3.37%
CC(C)c1ccc(/C=N/n2c(-c3ccccc3)n[nH]c2=S)cc1,"inconclusive: 39.8 µM [activator, single point]",
CC(=O)c1ccc(NC(=S)Nc2cccc3cnccc23)cc1,active: 39.8 µM,
Brc1cnc2nc(SC/C=C/c3ccccc3)[nH]c2c1,"inconclusive: 7.08 µM [activator, single point]",
COCCNC(=O)c1c[nH]c2ccc(S(=O)(=O)Nc3ccccc3F)cc2c1=O,,inactive: -2.73%
CC(C)OC(=O)C(C)(C)Oc1ccc(C(=O)c2ccc(Cl)cc2)cc1,"inconclusive: 44.7 µM [activator, partial curve, poor fit]",
NC(=O)CC(NC(=O)c1ccc(Br)cc1)c1ccc(N2CCN(c3ccccn3)CC2)c([N+](=O)[O-])c1 (stereo not drawn),"inconclusive: 39.8 µM [activator, single point]",
Cc1cc(C)cc(NC(=O)CN2CCN(c3ccccc3)CC2)c1,active: 10 µM,

SMILES,Potency,activation
CCOC(=O)Cc1csc(NC(=O)CSc2nnc(C(C)C)n2C)n1,active: 0.708 µM,
CCN(C(=O)c1ccc2c(Cl)c3c(nc2c1)CCC3)c1ccc(C)c(C)c1,"inconclusive: 28.2 µM [activator, partial curve]",
COc1cc(-c2nc3ccc(C)cn3c2NCc2ccccc2)ccc1-c1cccc(Cl)c1,"inconclusive: 22.4 µM [activator, partial curve]",
CSc1nc2nc3c(cc2c(=O)n1-c1ccccc1C)CCCC3,"inconclusive: 20 µM [activator, partial curve, poor fit]",
CCNc1nc(Oc2ccc(Cl)cc2Cl)cc(C(F)(F)F)n1,active: 31.6 µM,
CCN(CC)CCNC(=O)CCc1c(C)nc2c(c(C)nn2-c2ccc(C)cc2)c1C,"inconclusive: 2.51 µM [activator, partial curve]",
CC(CCc1ccccc1)NCc1ccc(Cl)cc1Cl (stereo not drawn),"inconclusive: 39.8 µM [activator, single point]",
Cn1cnnc1SCC(=O)Nc1ccc(F)cc1,"inconclusive: 2.82 µM [activator, partial curve]",
CCCCC(CC)C(=O)Oc1ccc(O)c(C(C)(C)C)c1 (stereo not drawn),"inconclusive: 31.6 µM [activator, partial curve]",
O=C(Nc1ncccc1O)c1ccc(Oc2ccccc2)cc1,"inconclusive: 3.55 µM [activator, partial curve]",
COc1cc2c(c(OC)c1OC)-c1ccc(NC(=O)c3ccc(F)cc3)c(=O)cc1[C@@H](NC(C)=O)CC2,"inconclusive: 3.55 µM [activator, single point]",
C#CCOCCOCCOCCNc1nc(N2CCN(C(=O)[C@H](CCCCN)n3cc(C(N)CO)nn3)CC2)nc(N2CCN(C(=O)[C@H](CCC(=O)O)n3cc(C(N)CC(C)C)nn3)CC2)n1 (stereo partly drawn),active: 39.8 µM,
COc1cc(/C=C2/SC(=NCc3ccccc3)N(Cc3ccccc3)C2=O)ccc1O,"inconclusive: 39.8 µM [activator, single point]",
CC(C)Nc1nc(Oc2ccc(Cl)cc2)cc(C(F)(F)F)n1,"inconclusive: 31.6 µM [activator, single point]",
COc1ccccc1NC(=O)/C(C#N)=C/c1cc([N+](=O)[O-])ccc1N1CCCC1,,inactive: -1.91%
CC1(C)OC(=CC=Nc2ccc(Cl)cc2)OC1(C)C,"inconclusive: 3.98 µM [activator, partial curve]",
CN(C)CCCN(CCCN(C)C)C(=S)Nc1ccc(S(=O)(=O)N2CCOCC2)cc1,active: 17.8 µM,
O=C(Cn1nc(CNc2ccc(Br)cc2)[n+]2c1CCCCC2)c1ccc([N+](=O)[O-])cc1,"inconclusive: 0.708 µM [activator, full curve, poor fit]",
COc1cccc(OC)c1OCC(O)CN1CCN(c2ccc(F)cc2)CC1 (stereo not drawn),"inconclusive: 3.98 µM [activator, single point]",
CSc1n[nH]c(-c2ccc(C(F)(F)F)cc2)n1,"inconclusive: 39.8 µM [activator, single point]",
COc1ccccc1CNc1ccc(Br)cn1,"inconclusive: 0.708 µM [activator, full curve, poor fit]",

# Fetched one by one from the list above (2):
SMILES,Potency,activation
CCN1CCN(C(=O)CS(=O)Cc2nc(-c3cccc(C)c3)oc2C)CC1 (stereo not drawn),,inactive: -10.1%
CSc1nc2nc3c(cc2c(=O)n1-c1ccccc1C)CCCC3,"inconclusive: 20 µM [activator, partial curve, poor fit]",
